Test results taken from publication doi:10.1101/2023.10.31.565004.
These are yes or no findings as the source states them, for the method shown. In cells and extracts the contact can be indirect. Some results given as binding are weak or reduced against the parent protein; the word gives no strength.

Sequences of proteins named here, by UniProt entry; tags and fusion partners are left off.
UniProt Q921F2: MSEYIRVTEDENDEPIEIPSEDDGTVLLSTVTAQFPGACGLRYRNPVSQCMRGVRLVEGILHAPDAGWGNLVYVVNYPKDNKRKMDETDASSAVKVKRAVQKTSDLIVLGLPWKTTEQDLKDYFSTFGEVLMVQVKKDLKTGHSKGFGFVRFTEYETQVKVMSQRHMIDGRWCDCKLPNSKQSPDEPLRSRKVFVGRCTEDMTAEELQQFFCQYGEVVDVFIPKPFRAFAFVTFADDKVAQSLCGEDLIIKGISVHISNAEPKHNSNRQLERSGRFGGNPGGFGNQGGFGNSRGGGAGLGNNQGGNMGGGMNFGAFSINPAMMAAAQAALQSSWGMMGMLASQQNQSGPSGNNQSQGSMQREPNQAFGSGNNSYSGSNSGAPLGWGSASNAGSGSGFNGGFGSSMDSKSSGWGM
UniProt P42859: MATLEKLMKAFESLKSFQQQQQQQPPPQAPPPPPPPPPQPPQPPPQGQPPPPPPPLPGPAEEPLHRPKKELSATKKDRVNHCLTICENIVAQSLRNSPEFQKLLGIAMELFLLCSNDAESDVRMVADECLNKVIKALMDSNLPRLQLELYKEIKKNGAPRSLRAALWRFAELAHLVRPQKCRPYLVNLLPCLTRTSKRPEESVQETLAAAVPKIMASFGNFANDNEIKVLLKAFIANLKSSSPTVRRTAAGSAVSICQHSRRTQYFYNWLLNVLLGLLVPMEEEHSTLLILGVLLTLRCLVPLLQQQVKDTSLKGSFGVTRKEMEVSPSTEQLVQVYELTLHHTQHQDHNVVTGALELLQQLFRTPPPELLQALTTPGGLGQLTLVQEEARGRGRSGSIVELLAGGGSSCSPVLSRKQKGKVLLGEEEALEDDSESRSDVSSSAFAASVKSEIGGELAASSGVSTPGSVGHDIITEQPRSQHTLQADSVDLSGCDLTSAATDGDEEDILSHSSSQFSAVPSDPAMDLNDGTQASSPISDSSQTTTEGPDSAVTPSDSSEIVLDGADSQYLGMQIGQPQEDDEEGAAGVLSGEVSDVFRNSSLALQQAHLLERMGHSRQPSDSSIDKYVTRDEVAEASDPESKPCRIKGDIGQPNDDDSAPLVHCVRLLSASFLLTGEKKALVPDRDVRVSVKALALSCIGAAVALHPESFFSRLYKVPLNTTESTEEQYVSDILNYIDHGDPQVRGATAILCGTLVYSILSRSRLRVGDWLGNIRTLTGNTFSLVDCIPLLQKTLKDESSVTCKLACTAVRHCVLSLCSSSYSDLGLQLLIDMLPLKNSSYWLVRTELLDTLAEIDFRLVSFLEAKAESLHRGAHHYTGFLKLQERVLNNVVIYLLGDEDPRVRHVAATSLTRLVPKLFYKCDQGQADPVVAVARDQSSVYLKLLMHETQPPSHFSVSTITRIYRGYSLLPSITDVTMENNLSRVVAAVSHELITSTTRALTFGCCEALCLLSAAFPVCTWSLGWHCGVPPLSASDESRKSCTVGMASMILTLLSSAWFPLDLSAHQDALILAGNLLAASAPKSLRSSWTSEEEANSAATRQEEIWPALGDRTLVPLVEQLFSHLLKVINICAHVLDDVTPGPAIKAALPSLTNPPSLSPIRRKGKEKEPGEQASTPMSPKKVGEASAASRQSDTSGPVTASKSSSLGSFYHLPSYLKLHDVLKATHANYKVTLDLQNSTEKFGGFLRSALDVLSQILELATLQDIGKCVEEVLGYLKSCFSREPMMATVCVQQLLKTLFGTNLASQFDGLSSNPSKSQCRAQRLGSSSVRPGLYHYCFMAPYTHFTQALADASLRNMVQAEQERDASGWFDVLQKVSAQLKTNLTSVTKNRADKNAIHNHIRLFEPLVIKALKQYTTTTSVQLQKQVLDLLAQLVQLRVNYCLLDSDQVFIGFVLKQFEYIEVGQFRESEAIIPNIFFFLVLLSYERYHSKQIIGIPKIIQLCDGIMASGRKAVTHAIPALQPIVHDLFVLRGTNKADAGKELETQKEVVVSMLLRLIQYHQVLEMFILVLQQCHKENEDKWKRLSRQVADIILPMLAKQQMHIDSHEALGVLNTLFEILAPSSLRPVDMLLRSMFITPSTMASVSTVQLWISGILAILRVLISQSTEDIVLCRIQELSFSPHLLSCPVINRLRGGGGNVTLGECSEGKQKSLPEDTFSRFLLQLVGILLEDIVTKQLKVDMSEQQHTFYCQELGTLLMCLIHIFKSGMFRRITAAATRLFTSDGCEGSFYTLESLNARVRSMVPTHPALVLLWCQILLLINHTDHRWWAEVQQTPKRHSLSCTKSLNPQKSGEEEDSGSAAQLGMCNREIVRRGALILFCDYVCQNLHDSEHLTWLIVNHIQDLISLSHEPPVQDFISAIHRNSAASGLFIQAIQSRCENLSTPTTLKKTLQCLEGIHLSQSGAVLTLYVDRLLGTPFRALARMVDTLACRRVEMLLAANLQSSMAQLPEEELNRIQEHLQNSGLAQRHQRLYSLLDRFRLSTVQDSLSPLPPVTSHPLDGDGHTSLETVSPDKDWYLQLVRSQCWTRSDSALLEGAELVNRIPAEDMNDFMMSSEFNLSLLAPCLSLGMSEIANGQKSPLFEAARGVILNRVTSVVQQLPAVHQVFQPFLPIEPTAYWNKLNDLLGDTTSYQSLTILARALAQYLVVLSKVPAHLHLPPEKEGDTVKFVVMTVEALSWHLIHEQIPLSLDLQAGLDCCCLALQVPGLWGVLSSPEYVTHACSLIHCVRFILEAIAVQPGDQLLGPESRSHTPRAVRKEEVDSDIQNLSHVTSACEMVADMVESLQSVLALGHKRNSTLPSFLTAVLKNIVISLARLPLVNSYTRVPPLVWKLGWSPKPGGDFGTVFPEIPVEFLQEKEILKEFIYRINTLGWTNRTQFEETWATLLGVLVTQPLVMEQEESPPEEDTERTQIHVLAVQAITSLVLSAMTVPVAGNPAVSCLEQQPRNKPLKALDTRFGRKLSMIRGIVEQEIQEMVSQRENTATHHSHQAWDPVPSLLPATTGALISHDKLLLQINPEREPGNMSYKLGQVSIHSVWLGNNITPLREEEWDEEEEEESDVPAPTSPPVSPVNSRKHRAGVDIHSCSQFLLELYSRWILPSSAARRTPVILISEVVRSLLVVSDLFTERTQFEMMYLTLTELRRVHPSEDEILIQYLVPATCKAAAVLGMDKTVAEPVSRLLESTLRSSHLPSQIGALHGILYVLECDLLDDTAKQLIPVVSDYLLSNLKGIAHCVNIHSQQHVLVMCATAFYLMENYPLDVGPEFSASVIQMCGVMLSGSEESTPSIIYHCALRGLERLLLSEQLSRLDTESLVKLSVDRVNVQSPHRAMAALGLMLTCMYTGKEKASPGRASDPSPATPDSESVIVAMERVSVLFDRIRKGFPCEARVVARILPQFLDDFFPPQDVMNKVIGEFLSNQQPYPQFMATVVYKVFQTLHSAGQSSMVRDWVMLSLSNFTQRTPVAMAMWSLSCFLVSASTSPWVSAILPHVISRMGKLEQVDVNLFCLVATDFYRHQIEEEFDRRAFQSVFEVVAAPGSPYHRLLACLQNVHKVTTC

Target: TAR DNA-Binding Protein (TARDBP/TDP-43) (mouse (endogenous in mouse brain)) (UniProt Q921F2)
Test: co-IP

mouse full-length HTT (FL-HTT) (from UniProt P42859 1-3119)
binding: binds
